# Measured values from the supplement of paper PMC8728848.
# The other results are listed elsewhere or left out.
# What was measured:
# Assay in all cases: glycan array binding signal (z-score within array); higher = stronger binding
# Details in all cases: glycan notation: IUPAC condensed, linker removed
# [1] = molecular target: GlcNAc(b1-4)GlcNAc(b1-4)GlcNAc(b1-4)GlcNAc(b1-4)GlcNAc
# Procedure, shortened: (§1)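 From the Consortium for Functional Glycomics database, 3228 arrays were curated, keeping only those whose protein sequence was available. Binding is given as a within-array Z-score averaged across arrays sharing a protein sequence and across linkers. Negative Z-scores can be read as non-binding.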
# [2] = molecular target: GlcNAc(b1-4)GlcNAc(b1-4)GlcNAc(b1-4)GlcNAc(b1-4)GlcNAc(b1-4)GlcNAc
# Procedure, shortened: as §1
# [3] = molecular target: GlcNAc(b1-4)[GlcNAc(b1-6)]GalNAc
# Procedure, shortened: as §1
# [4] = molecular target: GlcNAc(b1-6)Gal(b1-4)GlcNAc
# Procedure, shortened: as §1
# GlcNAc(b1-6)GalNAc = molecular target: GlcNAc(b1-6)GalNAc
# Procedure, shortened: as §1
# [5] = molecular target: GlcNAc6S(b1-3)Gal(b1-4)GlcNAc
# Procedure, shortened: as §1
# Kdn(a2-3)Gal(b1-3)GalNAc = molecular target: Kdn(a2-3)Gal(b1-3)GalNAc
# Procedure, shortened: as §1
# Kdn(a2-3)Gal(b1-3)GlcNAc = molecular target: Kdn(a2-3)Gal(b1-3)GlcNAc
# Procedure, shortened: as §1
# Kdn(a2-3)Gal(b1-4)Glc = molecular target: Kdn(a2-3)Gal(b1-4)Glc
# Procedure, shortened: as §1
# Kdn(a2-3)Gal(b1-4)GlcNAc = molecular target: Kdn(a2-3)Gal(b1-4)GlcNAc
# Procedure, shortened: as §1
# [6] = molecular target: Kdn(a2-3)Gal(b1-4)[Fuc(a1-3)]GlcNAc
# Procedure, shortened: as §1
# Kdn(a2-6)Gal(b1-4)GlcNAc = molecular target: Kdn(a2-6)Gal(b1-4)GlcNAc
# Procedure, shortened: as §1
# [7] = molecular target: Man(a1-2)Man(a1-2)Man(a1-3)Man
# Procedure, shortened: as §1
# [8] = molecular target: Man(a1-2)Man(a1-2)Man(a1-6)[Man(a1-3)]Man
# Procedure, shortened: as §1
# Man(a1-2)Man(a1-3)Man = molecular target: Man(a1-2)Man(a1-3)Man
# Procedure, shortened: as §1
# [9] = molecular target: Man(a1-2)Man(a1-3)[Man(a1-2)Man(a1-6)]Man
# Procedure, shortened: as §1
# [10] = molecular target: Man(a1-2)Man(a1-3)[Man(a1-2)Man(a1-6)]Man(a1-6)[Man(a1-2)Man(a1-2)Man(a1-3)]Man
# Procedure, shortened: as §1
# [11] = molecular target: Man(a1-2)Man(a1-3)[Man(a1-2)Man(a1-6)]Man(a1-6)[Man(a1-2)Man(a1-2)Man(a1-3)]Man(b1-4)GlcNAc(b1-4)GlcNAc
# Procedure, shortened: as §1
# [12] = molecular target: Man(a1-2)Man(a1-3)[Man(a1-6)]Man(a1-6)[Man(a1-2)Man(a1-3)]Man(b1-4)GlcNAc(b1-4)GlcNAc
# Procedure, shortened: as §1
# [13] = molecular target: Man(a1-2)Man(a1-6)[Man(a1-3)]Man(a1-6)[Man(a1-2)Man(a1-2)Man(a1-3)]Man
# Procedure, shortened: as §1
# [14] = molecular target: Man(a1-2)Man(a1-6)[Man(a1-3)]Man(a1-6)[Man(a1-2)Man(a1-2)Man(a1-3)]Man(b1-4)GlcNAc(b1-4)GlcNAc
# Procedure, shortened: as §1
# Man(a1-3)[Man(a1-6)]Man = molecular target: Man(a1-3)[Man(a1-6)]Man
# Procedure, shortened: as §1
# [15] = molecular target: Man(a1-3)[Man(a1-6)]Man(a1-6)[Man(a1-2)Man(a1-3)]Man(b1-4)GlcNAc(b1-4)GlcNAc
# Procedure, shortened: as §1
# [16] = molecular target: Man(a1-3)[Man(a1-6)]Man(a1-6)[Man(a1-3)]Man
# Procedure, shortened: as §1
# [17] = molecular target: Man(a1-3)[Man(a1-6)]Man(a1-6)[Man(a1-3)]Man(b1-4)GlcNAc(b1-4)GlcNAc
# Procedure, shortened: as §1
# [18] = molecular target: Man(a1-3)[Man(a1-6)]Man(b1-4)GlcNAc(b1-4)GlcNAc
# Procedure, shortened: as §1
# [19] = molecular target: Man(a1-3)[Man(a1-6)]Man(b1-4)GlcNAc(b1-4)[Fuc(a1-6)]GlcNAc
# Procedure, shortened: as §1
# Man(a1-6)Man = molecular target: Man(a1-6)Man
# Procedure, shortened: as §1
# Man(b1-4)GlcNAc = molecular target: Man(b1-4)GlcNAc
# Procedure, shortened: as §1
# MurNAc(b1-4)GlcNAc = molecular target: MurNAc(b1-4)GlcNAc
# Procedure, shortened: as §1
# Neu5Ac(a2-3)Gal = molecular target: Neu5Ac(a2-3)Gal
# Procedure, shortened: as §1
# [20] = molecular target: Neu5Ac(a2-3)Gal(b1-3)GalNAc
# Procedure, shortened: as §1
# [21] = molecular target: Neu5Ac(a2-3)Gal(b1-3)GalNAc(b1-3)Gal(a1-4)Gal(b1-4)Glc
# Procedure, shortened: as §1
# [22] = molecular target: Neu5Ac(a2-3)Gal(b1-3)GalNAc(b1-4)[Neu5Ac(a2-3)]Gal(b1-4)Glc
# Procedure, shortened: as §1
# [23] = molecular target: Neu5Ac(a2-3)Gal(b1-3)GalNAc(b1-4)[Neu5Ac(a2-8)Neu5Ac(a2-3)]Gal(b1-4)Glc
# Procedure, shortened: as §1
# [24] = molecular target: Neu5Ac(a2-3)Gal(b1-3)GalNAc6S
# Procedure, shortened: as §1
# [25] = molecular target: Neu5Ac(a2-3)Gal(b1-3)GlcNAc
# Procedure, shortened: as §1
binder,measurement,setting,value
SP15308B-bot-339-22-339 (Bacteroides ovatus) (protein) NEWEDEQYEQYVSFKAPIASGSDGVTTIYVRYKDNGKVTYQLPIIVSGSTVNSQDRDIHIAVDKDTLKTLNIERFSLYRPELWYTEMEEDKYEFPETVHIPAGSCVELLNIDFNLQDIDMLEKWVLPLTIVDDGSYAYQSHPRKNYAKALLKVVPFNNYSGSYTASSMKVYTYINGKPDTNARTTDKRTGYVVDNNSIFFYAGLINEDMDKDMRKKYKINVHFKEDGTLDMKQDDPSNEMEFELIGTPTYSSTSVMDATRPYLERRYVQIMFEYDFQDFTYGGSGTEVIPIKYRVAGSMTLLRNINTQIPDEDQQIEW,glycan array binding signal (z-score),[1],-0.482
same,glycan array binding signal (z-score),[2],-0.522
same,glycan array binding signal (z-score),[3],-0.384
same,glycan array binding signal (z-score),[4],0.154
same,glycan array binding signal (z-score),GlcNAc(b1-6)GalNAc,-0.008
same,glycan array binding signal (z-score),[5],-0.036
same,glycan array binding signal (z-score),Kdn(a2-3)Gal(b1-3)GalNAc,-0.145
same,glycan array binding signal (z-score),Kdn(a2-3)Gal(b1-3)GlcNAc,-0.219
same,glycan array binding signal (z-score),Kdn(a2-3)Gal(b1-4)Glc,-0.284
same,glycan array binding signal (z-score),Kdn(a2-3)Gal(b1-4)GlcNAc,0.143
same,glycan array binding signal (z-score),[6],0.16
same,glycan array binding signal (z-score),Kdn(a2-6)Gal(b1-4)GlcNAc,-0.425
same,glycan array binding signal (z-score),[7],-0.289
same,glycan array binding signal (z-score),[8],-0.347
same,glycan array binding signal (z-score),Man(a1-2)Man(a1-3)Man,-0.55
same,glycan array binding signal (z-score),[9],-0.727
same,glycan array binding signal (z-score),[10],0.591
same,glycan array binding signal (z-score),[11],0.147
same,glycan array binding signal (z-score),[12],-0.061
same,glycan array binding signal (z-score),[13],-0.308
same,glycan array binding signal (z-score),[14],-0.396
same,glycan array binding signal (z-score),Man(a1-3)[Man(a1-6)]Man,0.343
same,glycan array binding signal (z-score),[15],-0.333
same,glycan array binding signal (z-score),[16],-0.212
same,glycan array binding signal (z-score),[17],-0.353
same,glycan array binding signal (z-score),[18],-0.771
same,glycan array binding signal (z-score),[19],-0.222
same,glycan array binding signal (z-score),Man(a1-6)Man,0.174
same,glycan array binding signal (z-score),Man(b1-4)GlcNAc,0.693
same,glycan array binding signal (z-score),MurNAc(b1-4)GlcNAc,-0.294
same,glycan array binding signal (z-score),Neu5Ac(a2-3)Gal,-0.692
same,glycan array binding signal (z-score),[20],-0.294
same,glycan array binding signal (z-score),[21],0.161
same,glycan array binding signal (z-score),[22],-0.49
same,glycan array binding signal (z-score),[23],-0.13
same,glycan array binding signal (z-score),[24],-0.444
same,glycan array binding signal (z-score),[25],0.259

# Reprinted at random: 2 entries already listed
binder,measurement,setting,value
SP15308B-bot-339-22-339 (Bacteroides ovatus) (protein) NEWEDEQYEQYVSFKAPIASGSDGVTTIYVRYKDNGKVTYQLPIIVSGSTVNSQDRDIHIAVDKDTLKTLNIERFSLYRPELWYTEMEEDKYEFPETVHIPAGSCVELLNIDFNLQDIDMLEKWVLPLTIVDDGSYAYQSHPRKNYAKALLKVVPFNNYSGSYTASSMKVYTYINGKPDTNARTTDKRTGYVVDNNSIFFYAGLINEDMDKDMRKKYKINVHFKEDGTLDMKQDDPSNEMEFELIGTPTYSSTSVMDATRPYLERRYVQIMFEYDFQDFTYGGSGTEVIPIKYRVAGSMTLLRNINTQIPDEDQQIEW,glycan array binding signal (z-score),Kdn(a2-3)Gal(b1-4)GlcNAc,0.143
same,glycan array binding signal (z-score),[19],-0.222
